Experimental data reported in PubChem BioAssay AID248 (DTP/NCI, 2004).
The list does not hold the whole screen: it gathers tests that were run many times, whatever their T/C, doses with no T/C, and many T/C values between a quarter and a half above the control. Other doses and runs of a compound stand elsewhere. T/C: endpoint of the treated group in % of that of the vehicle group. Some doses have a count of surviving animals in place of a T/C: the source holds a T/C of zero for them, seemingly a mark for toxic or unscored doses. Some doses without a T/C left all or most animals alive at the check, yet need not have been tolerated: the source hardly ever lists a survival T/C far under the control, and the zero likely stands for such cases as well. Survivors were counted at the toxicity check, usually on the fifth day, unless a day is given; later deaths do not show. Schedule codes are those of the source, taken here to give the interval after Q, in days (D) or hours (H), and the number of doses after X. Some structures stand for samples that the source files as different forms (salt, stereo form or complex); doses refer to the form tested. Some schedules carry Z or #; the key to these is not given. Counts like (3×) stand for listed records that agree. Some entries hold several experiments; the values are given in rising order. For survival time, the PubChem record calls one and a half times the control and up active, and a quarter to a half above the control has no call in these data; cut-offs in other NCI protocols can differ. Some T/C values are followed by the survivors on the day toxicity was checked, most often the fifth; without a count, all were alive then.

System: L1210 leukemia ip in BDF1 mice, survival T/C
Assay: NCI In Vivo Anticancer Drug Screen. Data for tumor model L1210 Leukemia (intraperitoneal) in B6D2F1 (BDF1) mice
Conditions: T/C endpoint: mean survival time, higher T/C = longer survival
[1] = dose: 400.0 mg/kg/injection, schedule: Q01DX009 (ip), vehicle: gum acacia
[2] = dose: 400.0 mg/kg/injection, schedule: Q04DX003 (ip), vehicle: saline with Tween-80
[3] = dose: 50.0 mg/kg/injection, schedule: Q01DX009 (ip), vehicle: saline with Tween-80
[4] = dose: 200.0 mg/kg/injection, schedule: Q04DX003 (ip), vehicle: Klucel (hydroxypropylcellulose) (HPC)
[5] = dose: 400.0 mg/kg/injection, schedule: Q04DX003 (ip), vehicle: Klucel (hydroxypropylcellulose) (HPC)
[6] = dose: 400.0 mg/kg/injection, schedule: Q01DX009 (ip), vehicle: saline

Q: Which survivor count (dose: 100.0 mg/kg/injection, schedule: Q04DX003 (ip), vehicle: water) does the source give for `CN(C(N)=O)c1c(O)nc(N)[nH]c1=O` here?
A: The survivor count was 6 of 6.

Q: What about the survivor count (dose: 200.0 mg/kg/injection, schedule: Q04DX003 (ip), vehicle: water) of the same molecule?
A: The survivor count was 3 of 6.

Q: What about the survivor count (dose: 400.0 mg/kg/injection, schedule: Q04DX003 (ip), vehicle: water) of the same molecule?
A: Its survivor count is 4 of 6.

Q: Which survivor count (dose: 400.0 mg/kg/injection, schedule: Q01DX001 (ip), vehicle: saline) does the source give for `COc1cccc(CCN)c1` here?
A: Its survivor count is 1 of 4.

Q: Which results are given for `O=C1NC(c2ccccc2)C(=O)N1CCN(CCCl)CCCl` (stereo not given)?
A: survivor count (dose: 25.0 mg/kg/injection, schedule: Q01DX009 (ip), vehicle: saline): 3 of 6; survivor count (dose: 50.0 mg/kg/injection, schedule: Q04DX003 (ip), vehicle: saline): 6 of 6; survivor count (dose: 100.0 mg/kg/injection, schedule: Q04DX003 (ip), vehicle: saline): 3 of 6; survivor count (dose: 200.0 mg/kg/injection, schedule: Q04DX003 (ip), vehicle: saline): 1 of 6

Q: Which survivor count [1] does the source give for `S=C1NC(c2ccc(Cl)cc2)N2C(=S)NC(c3ccc(Cl)cc3)N12` (stereo not given) here?
A: The survivor count was 6 of 6.

Q: Which survivor count (dose: 900.0 mg/kg/injection, schedule: Q01DX Z (ip), vehicle: other) does the source give for `CC(C)(C)CC(CC(C)(C)C)C(=O)O` here?
A: Its survivor count is 0 of 6.

Q: For `CC(C)N(CCNc1nc(C(Cl)(Cl)Cl)nc2cc(Cl)ccc12)C(C)C`, which survivor count [2] is on record?
A: Its survivor count is 3 of 6.

Q: How did the survivor count [3] turn out when `CCCCCCCCCCCCCCCCCC(=O)OCC(O)COC(C)=O` (stereo not given) was run?
A: The survivor count was 3 of 3.

Q: How did the survivor count (dose: 200.0 mg/kg/injection, schedule: Q01DX001 (ip), vehicle: carboxymethylcellulose (CMC)) turn out when `Nc1ncnc2nncnc12` was run?
A: The survivor count was 0 of 4.

Q: What about the survivor count (dose: 400.0 mg/kg/injection, schedule: Q01DX001 (ip), vehicle: carboxymethylcellulose (CMC)) of the same molecule?
A: The survivor count was 0 of 4.

Q: Which results are given for `CN(CCS(=O)(=O)O)/N=C/c1ccc2c(c1)OCO2`?
A: survivor count (dose: 200.0 mg/kg/injection, schedule: Q01DX001 (ip), vehicle: saline with Tween-80): 6 of 6; survivor count (dose: 400.0 mg/kg/injection, schedule: Q01DX001 (ip), vehicle: saline with Tween-80): 6 of 6

Q: Which results are given for `COC(=O)C(CCCN(C)C)(CCCN(C)C)c1cccc2ccccc12`?
A: survivor count (dose: 200.0 mg/kg/injection, schedule: Q04DX003 (ip), vehicle: saline with Tween-80): 1 of 6; survivor count [2]: 0 of 6

Q: Which survivor count (dose: 200.0 mg/kg/injection, schedule: Q01DX009 (ip), vehicle: saline with Tween-80) does the source give for `COc1ccccc1C1CCCC2C(Oc3ccc([N+](=O)[O-])cc3)OC12` (stereo not given) here?
A: The survivor count was 3 of 3.

Q: Which survivor count [3] does the source give for `CC(=O)OC1(c2ccc(Cl)cc2)OC(=O)C(c2ccccc2)=C1Cc1ccccc1` (stereo not given) here?
A: The survivor count was 3 of 3.

Q: And the survivor count (dose: 100.0 mg/kg/injection, schedule: Q01DX009 (ip), vehicle: saline with Tween-80)?
A: The survivor count was 3 of 3.

Q: `NC(=O)CNC(=O)C(CSCc1ccccc1)NC(=O)OCc1ccccc1` (stereo not given) was tested. Which survivor count [4] did it give?
A: The survivor count was 6 of 6.

Q: What about the survivor count [5] of the same molecule?
A: Its survivor count is 6 of 6.

Q: How did the survivor count [6] turn out when `CC(CN)NCc1ccccc1` (stereo not given) was run?
A: Its survivor count is 3 of 6.

Q: For `Cc1c2ccccc2cc2cccc[n+]12`, which T/C (dose: 40.0 mg/kg/injection, schedule: Q04DX003 (ip), vehicle: saline) is on record?
A: Its T/C is 129 % of control.

Q: And the T/C (dose: 60.0 mg/kg/injection, schedule: Q04DX003 (ip), vehicle: saline)?
A: The T/C was 129 % of control [4 of 6 alive].

Q: And the survivor count (dose: 80.0 mg/kg/injection, schedule: Q01DX001 (ip), vehicle: saline)?
A: The survivor count was 1 of 6.

Q: And the T/C (dose: 80.0 mg/kg/injection, schedule: Q04DX003 (ip), vehicle: saline)?
A: The T/C was 125 % of control.

Q: And the survivor count (dose: 120.0 mg/kg/injection, schedule: Q04DX003 (ip), vehicle: saline)?
A: Its survivor count is 1 of 6.

Q: And the survivor count (dose: 180.0 mg/kg/injection, schedule: Q04DX003 (ip), vehicle: saline)?
A: The survivor count was 1 of 6.

Q: What about the survivor count (dose: 270.0 mg/kg/injection, schedule: Q04DX003 (ip), vehicle: saline) of the same molecule?
A: Its survivor count is 3 of 6.

Q: Which T/C (dose: 23.0 mg/kg/injection, schedule: Q01DX001 (ip), vehicle: other) does the source give for `CC(C)(C)C1CCCC(NC(=O)N(CCCl)N=O)C1` (stereo not given) here?
A: Its T/C is 136 % of control.

Q: For `CC(Br)(c1ccccc1)[P+](c1ccccc1)(c1ccccc1)c1ccccc1` (stereo not given), which survivor count (dose: 60.0 mg/kg/injection, schedule: Q01DX001 (ip), vehicle: carboxymethylcellulose (CMC)) is on record?
A: The survivor count was 1 of 6.

Q: What about the survivor count (dose: 75.0 mg/kg/injection, schedule: Q01DX001 (ip), vehicle: carboxymethylcellulose (CMC)) of the same molecule?
A: The survivor count was 0 of 6.

Q: And the survivor count (dose: 150.0 mg/kg/injection, schedule: Q01DX001 (ip), vehicle: carboxymethylcellulose (CMC))?
A: Its survivor count is 0 of 6.

Q: And the survivor count (dose: 300.0 mg/kg/injection, schedule: Q01DX001 (ip), vehicle: carboxymethylcellulose (CMC))?
A: The survivor count was 0 of 6.

Q: How did the survivor count [2] turn out when `CC1(C)CC(N=Cc2ccccc2O)CC(C)(C)N1O.CC1(C)CC(N=Cc2ccccc2O)CC(C)(C)N1O.[Co]` was run?
A: The survivor count was 2 of 4.

Q: With `O=[N+]([O-])/C(N=Nc1ccc(Br)cc1)=N\Nc1ccc(Br)cc1` as the molecule, how does the survivor count (dose: 300.0 mg/kg/injection, schedule: Q01DX001 (ip), vehicle: acetone) read?
A: The survivor count was 5 of 6.

Q: For `O=C(COc1ccc([N+](=O)[O-])cc1Cl)Nc1ccccc1`, which survivor count (dose: 200.0 mg/kg/injection, schedule: Q01DX009 (ip), vehicle: acetone) is on record?
A: The survivor count was 6 of 6.

Q: And the survivor count (dose: 400.0 mg/kg/injection, schedule: Q01DX009 (ip), vehicle: acetone)?
A: Its survivor count is 6 of 6.

Q: With `CCC(C)N1C(=O)CCC1=O` (stereo not given) as the molecule, how does the survivor count (dose: 1200.0 mg/kg/injection, schedule: Q01DX001 (ip), vehicle: saline) read?
A: Its survivor count is 0 of 4.

Q: Which results are given for `O=P1(N(CCF)CCCl)NCCCO1` (stereo not given)?
A: survivor count (dose: 100.0 mg/kg/injection, schedule: Q01DX Z (ip), vehicle: other): 1 of 6; survivor count (dose: 300.0 mg/kg/injection, schedule: Q01DX Z (ip), vehicle: other): 0 of 6

Q: How did the T/C (dose: 250.0 mg/kg/injection, schedule: Q01DX Z (ip), vehicle: water) turn out when `CN=C(NC(C=O)C(O)C(O)C(O)CO)c1ccc(NC(=O)c2ccc(C(=O)Nc3ccc(C(=NC)NC(C=O)C(O)C(O)C(O)CO)cc3)cc2)cc1` (stereo not given) was run?
A: Its T/C is 129 % of control [5 of 6 alive].

Q: And the survivor count (dose: 500.0 mg/kg/injection, schedule: Q01DX Z (ip), vehicle: water)?
A: Its survivor count is 0 of 6.

Q: How did the T/C (dose: 2.0 mg/kg/injection, schedule: Q01DX015 (ip), vehicle: saline) turn out when `CC[C@@]1(O)C(=O)OCc2c1cc1n(c2=O)Cc2cc3ccccc3[n+]([O-])c2-1` was run?
A: The T/C was 144 % of control.

Q: And the T/C (dose: 4.0 mg/kg/injection, schedule: Q01DX015 (ip), vehicle: saline)?
A: Its T/C is 131 % of control.

Q: What about the survivor count (dose: 16.0 mg/kg/injection, schedule: Q01DX015 (ip), vehicle: saline) of the same molecule?
A: Its survivor count is 6 of 6.

Q: What about the T/C (dose: 25.0 mg/kg/injection, schedule: Q01DX001 (ip), vehicle: saline) of the same molecule?
A: The T/C was 136 % of control.

Q: What about the T/C (dose: 50.0 mg/kg/injection, schedule: Q01DX001 (ip), vehicle: saline) of the same molecule?
A: Its T/C is 147 % of control.

Q: For `CCCCNC(=O)Nc1ccc(Nc2ccccc2)cc1`, which survivor count [1] is on record?
A: Its survivor count is 6 of 6.

Q: For `CS(=O)(=O)NC1=NCCN1[N+](=O)[O-]`, which survivor count (dose: 80.0 mg/kg/injection, schedule: Q04DX003 (ip), vehicle: Klucel (hydroxypropylcellulose) (HPC)) is on record?
A: The survivor count was 3 of 6.

Q: What about the survivor count (dose: 100.0 mg/kg/injection, schedule: Q04DX003 (ip), vehicle: Klucel (hydroxypropylcellulose) (HPC)) of the same molecule?
A: Its survivor count is 2 of 6.

Q: And the survivor count [4]?
A: Its survivor count is 0 of 6.

Q: And the survivor count [5]?
A: The survivor count was 0 of 6.

Q: Which survivor count (dose: 62.5 mg/kg/injection, schedule: Q01DX015 (ip), vehicle: water) does the source give for `O=C(O)CCC(=O)O` here?
A: The survivor count was 6 of 6.

Q: And the survivor count (dose: 250.0 mg/kg/injection, schedule: Q01DX015 (ip), vehicle: water)?
A: Its survivor count is 2 of 6.

Q: What about the survivor count [6] of the same molecule?
A: Its survivor count is 1 of 6 and 3 of 6.

Q: What about the survivor count (dose: 500.0 mg/kg/injection, schedule: Q01DX001 (ip), vehicle: water) of the same molecule?
A: The survivor count was 3 of 6.

Q: What about the survivor count (dose: 500.0 mg/kg/injection, schedule: Q01DX015 (ip), vehicle: water) of the same molecule?
A: Its survivor count is 3 of 6.

Q: And the survivor count (dose: 750.0 mg/kg/injection, schedule: Q01DX001 (ip), vehicle: water)?
A: Its survivor count is 0 of 6 and 3 of 6.

Q: And the survivor count (dose: 1000.0 mg/kg/injection, schedule: Q01DX001 (ip), vehicle: water)?
A: The survivor count was 0 of 6 (2×).

Q: How did the survivor count (dose: 200.0 mg/kg/injection, schedule: Q04DX002 (ip), vehicle: Klucel (hydroxypropylcellulose) (HPC)) turn out when `Cc1cc(C)c(CSC(=N)N)c(C)c1` was run?
A: Its survivor count is 2 of 3.

Q: And the survivor count (dose: 400.0 mg/kg/injection, schedule: Q04DX002 (ip), vehicle: Klucel (hydroxypropylcellulose) (HPC))?
A: The survivor count was 0 of 3.

Q: For `CSc1cc(C(=O)O)nc(SC)n1`, which survivor count (dose: 200.0 mg/kg/injection, schedule: Q01DX Z (ip), vehicle: methylcellulose (MC)) is on record?
A: The survivor count was 0 of 6.
